From PubChem BioAssay AID1347423 (Functional Genomics Laboratory (NCATS/FGL), 2020)
About 210 (0.4%) of roughly 52,000 sequences were called active.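 The calls were made as follows: active = gene whose silencing raises cell survival under the drug, median off-target-corrected z-score across its silencing RNAs 2 or more; inactive = the rest.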 The list shows a part of the results.

assay: Resistance to Poly (ADP-Ribose) Polymerase inhibitor: Gene Identification via Genome-wide siRNA Screen; details: mouse BRCA2 R2336H ES cells, olaparib, CellTiter-Glo viability; stronger effect = higher value
How it was run: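 Mouse BRCA2 R2336H ES cells were reverse-transfected with siRNA (20 nM final), treated at 48 h with 500 nM olaparib, and read by CellTiter-Glo after 72 h. Scores: MAD-based z per siRNA, median per gene, seed off-target correction.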

| Sequence | z-score |
| --- | --- |
| GGCUUAGUGCCUCUAAAAGTT against Aqp6 | inactive: 2.29 |
| GGCUCAAAGGCUACAGCAATT against Ctsw | inactive: 1.49 |
| GCAAGGGUUUGGUAGUAGGTT against Nup188 | inactive: 0.212 |
| GGAGUAUCUUAGGAGUGAATT against A130042E20Rik | inactive: 1.18 |
| GGCUGACUCGCUUUCACCATT against Efna2 | inactive: 1.66 |
| CCAACACAUACCAACAGGUTT against 3100004P22Rik | inactive: -3.04 |
| GGUCUUCAUCUGUCCAACUTT against Tmlhe | inactive: 0.0829 |
| GGACCUGUGGUUGUUGUUCTT against Tll2 | inactive: 0.439 |
| GGGAUUAAACUGCUCUGUGTT against 1700019N19Rik | inactive: -0.891 |
| GGGUUGAUAGAAGUUUUUATT against Cpeb1 | inactive: -0.0714 |
| GCCGUCCUUACACCUUUAUTT against Olfr599 | inactive: -1.86 |
| GCAGAAAAGGUCUACGUGCTT against Azgp1 | inactive: 1.47 |
| GCUAAUUAAGAAGAGAGCATT against Gclc | inactive: -0.0138 |
| GGAAUACGAAAAGCAGGACTT against 1110004B13Rik | inactive: 1.72 |
| GGUUCCAGAUGUGAUCAGUTT against Tbc1d4 | inactive: -0.302 |
| GGGACUCGGAUAUUCGUGUTT against Adcy7 | inactive: 0.717 |
| GCUAUUGCUCGCAUCAAUGTT against 1700011K15Rik | inactive: -0.202 |
| GGAGGAUGCAAUUUUUAACTT against Sult1e1 | inactive: 0.845 |
| GUGUGGAAGGAAGAGGUUUTT against D730049H07Rik | inactive: -0.824 |
| CCGAAACCAGCGUAUCCUGTT against Cpn1 | inactive: -1.03 |
| GGAGAAGAAAGGUUACAUCTT against Calml4 | inactive: 0.15 |
| GCAGAAAUUAAGGCCUUAATT against Bicd1 | inactive: -2.84 |
| GGAUCAACCACAUCAGCUCTT against Hrh2 | inactive: 0.613 |
| GGAGGGUAUUAUUGACAUATT against Gnat1 | inactive: -0.371 |
| GCCAAUGAAUACUUGCCCATT against Farp2 | inactive: 0.166 |
| CCUUGACAACCAACAGAUUTT against 6230417E10Rik | inactive: -1.56 |

| Sequence | z-score |
| --- | --- |
| GGUAGUCACUUUCAGAGGATT against A230103N10Rik | inactive: 1.78 |
| GGAGCUGGACGACUACUAUTT against Ing1 | inactive: -0.913 |
| CCCACUGAUGAUUACGUUCTT against Irf5 | inactive: 0.0428 |
| GGACAUGUAUAAGAAGAUGTT against Itpka | inactive: -0.397 |
| GCUUAGACUCACCAAAGGCTT against Gpr26 | inactive: 1.11 |
| GGCUGGACUUUCAGCUGAUTT against Sema6d | inactive: -1.75 |
| GGACAAGAAGCAUCUUUCATT against Smpdl3a | inactive: -1.94 |
| CCCAGCUCUGUUUAAUGAUTT against Klf8 | inactive: 1.96 |
| CGAUGAGAGUCCACUCCCATT against BC038311 | inactive: 0.913 |
| CGAGCUCAGGCCUAUUAAATT against MGC92959 | inactive: 1.23 |
| GGGUAAAAGUAGCUGCCCUTT against Trp53inp2 | inactive: 0.295 |
| GGUGAUCUUAGUGGAGGGCTT against Ppox | inactive: 0.0198 |
| GGCUCCAGAAGGAACUUUCTT against Socs2 | inactive: 0.0215 |
| GGCAUGGACAAAGAGAAGGTT against Nol6 | inactive: -1.45 |
| GCAAAGUUAUUUCGCUUGGTT against Mgst2 | inactive: -1.1 |
| CCAAAUACGACUUACGAAATT against Ncam2 | inactive: 0.897 |
| GCUAUAGUUCUCUUUAGUCTT against Nr2c2 | inactive: 1.84 |
| GGCUAAAAAAGUCUCAGCCTT against Pbx2 | inactive: 1.02 |
| GGACAAGUUGUUGGACUACTT against Smarca3 | active: 1.04 |
| GGAGGAUAUUGGAACUGCCTT against BC004853 | inactive: 1.34 |
| GCGCUUCCAAUAACAAAAATT against 1700123L14Rik | inactive: 0.85 |
| GGCCUAAAGGCUUUGAUGATT against Nars | inactive: -0.365 |
| GGACAGACCACACUUCAUGTT against Foxp3 | inactive: -0.757 |
| GGUGAUCGUGGUGUGGAACTT against Extl2 | inactive: 0.328 |
| GGACGAGAGCACCUGAAAUTT against 4921525D22Rik | inactive: -0.976 |
| GCACUUCGAUGAGUUGUGCTT against Def6 | inactive: 1.38 |

| Sequence | z-score |
| --- | --- |
| GGACUGAAGUCCUUGACACTT against Lgi3 | inactive: 0.511 |
| CCACGUGUCUUAGAAUUAATT against Gas1 | inactive: 1.56 |
| GGAGAGCAUCCUGAAGACGTT against C530009C10Rik | inactive: 0.344 |
| CGUGUCCUGACCUUUCAACTT against Il22ra1 | inactive: -0.34 |
| GGUUCAAGGCAUUUUCUACTT against Olfr715 | inactive: -0.157 |
| GGACAAUUACAACACUCAATT against D930036B08Rik | inactive: -1.31 |
| GGAAUUGAGGUGAUGGAUATT against Sfxn4 | inactive: -0.921 |
| GGAACUACCUUGAAGAGGATT against ORF18 | inactive: -0.63 |
| CCAGGUUCUAUCUACCUACTT against 9830123M21Rik | inactive: -0.16 |
| CCGUUGACAGAACAGUCCUTT against Vegfa | inactive: -1.65 |
| CCUCACAGGCCUACGACAATT against Csrp2 | inactive: 0.544 |
| GCAAUAGACAUUCAUCAGATT against Serpinb9c | inactive: -0.367 |
| GGAUUUGACUAACAUAGGGTT against 6720460F02Rik | inactive: 0.0823 |
| GGGUUAAUUCCAGAAACUATT against D930020E02Rik | inactive: -1.57 |
| CCAUCUCUAGAGCAAGACUTT against Cs | inactive: -0.115 |
| GGAGAAAGCUGCUCAUGAATT against Caml | inactive: 2.51 |
| GGUUGAUCCAAAAGAUUACTT against Rp2h | inactive: 0.343 |
| GCUACAGGAUUACAUGGUCTT against BC020535 | inactive: -0.461 |
| CCACAAAUGAGCGCAGAGUTT against Erg | inactive: 0.0757 |
| GGACAGAAUUAAGGAUGUCTT against Fdxr | inactive: 0.103 |
| GGUGUUGUAAAAUUCCUCATT against 9030406N13Rik | inactive: -0.0303 |
| GGCAUGAGUUCUACCUUCUTT against Tssc4 | inactive: 0.667 |
| GGCCUUGGAACUUAAACGGTT against Dhdds | inactive: 0.715 |
| CCCAUUAAUUCGACAACUATT against Ppp1r1c | inactive: -1.36 |
| GGAAAGUGUUGUUUAAGAATT against 1500019C06Rik | inactive: 0.777 |
| GGUUGUGACAAUGUGGUACTT against Coro1b | inactive: 0.097 |

| Sequence | z-score |
| --- | --- |
| GGGUCCUACAAAAAAAAAATT against D4Wsu114e | inactive: 0.806 |
| GCAAAUGGAUAACUUGUACTT against Epas1 | inactive: 0.585 |
| CCUCUGCUUUGUUACUUCCTT against Olfr1431 | inactive: -0.343 |
| GGUUCCUAAGGAUGAACUUTT against 9030611N15Rik | inactive: -0.94 |
| GCCGUUAAGUACUUAUAAATT against D8Ertd319e | inactive: 1.03 |
| GGAGAAGUUGAUAGCUAAATT against Pax6 | inactive: 1.66 |
| GGUGGUUACAACCGAAGCATT against Fus | active: 2.95 |
| GGGCAAACCUUCUAAACUATT against Ttpa | inactive: -0.446 |
| GGAUAAGGCUUUAUGAGAGTT against Cryga | inactive: -0.461 |
| GGAGCUUGAUUCGAAGCCUTT against Biklk | inactive: -0.258 |
| GGAUCAGUUGGCAAAGCUCTT against D3Ertd789e | inactive: 0.529 |
| GGAAGCUCACUAGUAACUUTT against Itgb5 | inactive: -0.555 |
| GGAUCCAAGUGAACGACCUTT against Ppp1r9b | inactive: 1.48 |
| GGAGGACUUCUCCUCCUUCTT against 4930538D17Rik | inactive: 0.601 |
| GGAGAUUAUAGGGAAGCUCTT against Il3 | inactive: -0.223 |
| GGUCGAGGACAAAAAAAAATT against Dner | inactive: 0.332 |
| CCAAAACUUUCCACUCUAATT against 1700013G20Rik | inactive: -0.945 |
| GGAAAAGAGGAGUGAAAUCTT against Tmsb10 | inactive: -1.31 |
| GGCUCACUCAUCAAUUCCCTT against 2210010C04Rik | inactive: -0.136 |
| GGAUGUGCCCAAGGACAAGTT against Foxc2 | inactive: -1.94 |
| GGAUCAACGAGGAUCAAGATT against D230014K01Rik | inactive: 0.785 |
| UAUCCACUUUACCUUUGUATT against Zfp187 | inactive: 0.279 |
| GGAUGUCAAAUCUUCCAUATT against Olfr971 | inactive: 1.15 |
| GGAGUUGUGACUACGGAGATT against MGC67168 | inactive: 0.475 |
| GGCACUUCCAUGCUAAAUUTT against Gpt1 | inactive: 0.801 |
| GGGACUUUGAUUUUGAGAGTT against Ppp1r3f | inactive: 0.249 |

Some of the entries so far, in CSV form:
Sequence,z-score
GGGUCCUACAAAAAAAAAATT against D4Wsu114e,inactive: 0.806
GCAAAUGGAUAACUUGUACTT against Epas1,inactive: 0.585
CCUCUGCUUUGUUACUUCCTT against Olfr1431,inactive: -0.343
GGUUCCUAAGGAUGAACUUTT against 9030611N15Rik,inactive: -0.94
GCCGUUAAGUACUUAUAAATT against D8Ertd319e,inactive: 1.03
GGAGAAGUUGAUAGCUAAATT against Pax6,inactive: 1.66
